The results in this text go back to patent US20070099830A1.

Protein sequences, listed by entry. Tags and fused reporters are not part of them. Residues count along the entry.
UniProt P26443, residues 54-558: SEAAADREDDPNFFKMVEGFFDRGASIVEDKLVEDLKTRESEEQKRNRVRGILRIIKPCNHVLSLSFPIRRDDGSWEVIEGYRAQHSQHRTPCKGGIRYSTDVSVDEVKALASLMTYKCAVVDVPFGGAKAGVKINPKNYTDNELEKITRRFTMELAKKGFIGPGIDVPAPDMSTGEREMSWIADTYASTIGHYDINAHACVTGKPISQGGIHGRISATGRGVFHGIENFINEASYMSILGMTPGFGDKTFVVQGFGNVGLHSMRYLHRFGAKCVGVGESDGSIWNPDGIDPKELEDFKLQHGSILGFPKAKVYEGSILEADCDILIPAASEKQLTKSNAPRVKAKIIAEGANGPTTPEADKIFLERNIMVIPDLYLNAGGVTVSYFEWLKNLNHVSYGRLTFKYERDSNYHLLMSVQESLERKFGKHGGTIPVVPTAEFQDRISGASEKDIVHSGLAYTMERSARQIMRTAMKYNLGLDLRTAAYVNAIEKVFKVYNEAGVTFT
UniProt Q9JHR7: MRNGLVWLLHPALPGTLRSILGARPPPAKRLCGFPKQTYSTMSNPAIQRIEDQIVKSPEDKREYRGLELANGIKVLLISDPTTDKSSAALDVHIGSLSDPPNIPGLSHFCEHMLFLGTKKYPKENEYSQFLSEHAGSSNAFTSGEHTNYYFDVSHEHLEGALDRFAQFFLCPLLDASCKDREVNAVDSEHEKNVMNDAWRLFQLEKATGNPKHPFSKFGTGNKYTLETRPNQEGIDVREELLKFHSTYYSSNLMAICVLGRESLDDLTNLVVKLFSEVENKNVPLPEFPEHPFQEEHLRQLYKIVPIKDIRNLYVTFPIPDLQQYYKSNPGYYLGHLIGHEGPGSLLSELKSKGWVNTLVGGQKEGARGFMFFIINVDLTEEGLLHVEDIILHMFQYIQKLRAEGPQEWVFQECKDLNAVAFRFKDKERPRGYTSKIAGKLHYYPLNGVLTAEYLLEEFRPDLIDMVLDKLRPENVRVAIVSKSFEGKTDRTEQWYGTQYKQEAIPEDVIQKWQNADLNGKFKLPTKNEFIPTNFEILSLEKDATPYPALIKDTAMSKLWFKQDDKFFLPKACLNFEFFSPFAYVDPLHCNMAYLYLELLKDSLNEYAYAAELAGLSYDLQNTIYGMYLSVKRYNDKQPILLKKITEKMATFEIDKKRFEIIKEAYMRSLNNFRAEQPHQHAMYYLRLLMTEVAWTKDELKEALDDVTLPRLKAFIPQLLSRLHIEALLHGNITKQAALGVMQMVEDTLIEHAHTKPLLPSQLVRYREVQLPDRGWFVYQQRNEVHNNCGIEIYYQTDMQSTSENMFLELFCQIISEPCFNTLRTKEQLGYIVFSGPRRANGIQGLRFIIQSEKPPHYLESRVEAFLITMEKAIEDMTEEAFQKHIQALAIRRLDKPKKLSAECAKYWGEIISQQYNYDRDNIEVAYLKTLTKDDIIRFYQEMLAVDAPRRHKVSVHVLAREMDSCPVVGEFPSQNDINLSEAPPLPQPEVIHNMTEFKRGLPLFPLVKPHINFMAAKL
UniProt P14735: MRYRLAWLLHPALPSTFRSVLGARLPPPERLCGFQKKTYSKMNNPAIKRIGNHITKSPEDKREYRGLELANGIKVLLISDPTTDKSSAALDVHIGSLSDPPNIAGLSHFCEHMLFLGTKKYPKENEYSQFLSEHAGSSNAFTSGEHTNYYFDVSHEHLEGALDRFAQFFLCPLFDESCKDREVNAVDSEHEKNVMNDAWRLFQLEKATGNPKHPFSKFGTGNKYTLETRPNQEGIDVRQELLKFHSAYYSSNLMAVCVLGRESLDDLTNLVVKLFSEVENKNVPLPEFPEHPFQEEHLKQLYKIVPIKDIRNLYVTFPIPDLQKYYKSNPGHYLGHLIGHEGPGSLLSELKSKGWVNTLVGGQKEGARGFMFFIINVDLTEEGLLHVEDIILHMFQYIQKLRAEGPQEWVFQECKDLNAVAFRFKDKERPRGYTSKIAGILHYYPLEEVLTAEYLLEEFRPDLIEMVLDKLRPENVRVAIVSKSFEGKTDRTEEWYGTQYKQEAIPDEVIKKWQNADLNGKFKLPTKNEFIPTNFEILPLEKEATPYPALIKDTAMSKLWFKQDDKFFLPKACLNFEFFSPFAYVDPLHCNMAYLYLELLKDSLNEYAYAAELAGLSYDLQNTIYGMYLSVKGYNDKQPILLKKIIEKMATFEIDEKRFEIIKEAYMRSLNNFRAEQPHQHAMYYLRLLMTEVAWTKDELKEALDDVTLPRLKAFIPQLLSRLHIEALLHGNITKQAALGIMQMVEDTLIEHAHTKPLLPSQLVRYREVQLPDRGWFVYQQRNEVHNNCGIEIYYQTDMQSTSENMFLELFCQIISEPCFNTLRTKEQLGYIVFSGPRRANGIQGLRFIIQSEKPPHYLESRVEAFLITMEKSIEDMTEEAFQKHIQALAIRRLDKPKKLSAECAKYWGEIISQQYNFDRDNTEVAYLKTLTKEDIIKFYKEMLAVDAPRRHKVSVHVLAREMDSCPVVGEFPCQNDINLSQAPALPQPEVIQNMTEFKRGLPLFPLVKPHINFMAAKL

These are yes or no findings as the source states them, for the method shown. In cells and extracts the contact can be indirect. Some results given as binding are weak or reduced against the parent protein; the word gives no strength. For some of these results: Where a sequence is shown, tags or fusion partners need not be part of it.

Test [1] concerns the target glutamate dehydrogenase (endogenous, MIN6 cells) (mouse) (UniProt P26443). The test is described as follows: co-immunoprecipitation from MIN6 cells with anti-mSirt4, western blot (figure legend). In general terms: A western blot detects proteins with antibodies after separation by electrophoresis.
For test [2], the target named is insulin degrading enzyme (endogenous, MIN6 cells) (mouse) (UniProt Q9JHR7). The test is described as follows: co-immunoprecipitation of endogenous proteins from MIN6 cells, western blot.
Test [3] has as its target glutamate dehydrogenase (endogenous, MIN6 cells) (mouse) (UniProt P26443). Described as above.
Test [4] deals with insulin degrading enzyme (endogenous, 293T cells) (human) (UniProt P14735). Nature of the test: co-immunoprecipitation from 293T cells with α-FLAG, western blot.

B1: mouse Sirt4 (endogenous, MIN6 cells) (enzyme)
chain: SGLFVPPSPPLDPEKIKELQRFISLSKKLLVMTGAGISTESSIPDYRSEKVGLYARTDRRPIQHIDFVRSAPVRQRYWARNFVGWPQFSSHQPNPAHWALSNWERLGKLHWLVTQNVDALHSKAGSQRLTELHGCMHRVLCLNCGEQTARRVLQERFQALNPSWSAEAQGVAPDGDVFLTEEQVRSFQVPCCDRCGGPLKPDVVFFGDTVNPDKVDFVHRRVKEADSLLVVGSSLQVYSGYRFILTAREQKLPIAILNIGPTRSDDLACLKLDSRCGELLPLIDPRRQHSDVQRLEMNFPLSSAAQDP
Turning to B1, the binding entry in test [1], in test [2] and in test [3] was “binds” throughout.

B2: human Sirt4 with a C-terminal FLAG (enzyme, not shown: small tags and cut ends)
chain: IGLFVPASPPLDPEKVKELQRFITLSKRLLVMTGAGISTESGIPDYRSEKVGLYARTDRRPIQHGDFVRSAPIRQRYWARNFVGWPQFSSHQPNPAHWALSTWEKLGKLYWLVTQNVDALHTKAGSRRLTELHGCMDRVLCLDCGEQTPRGVLQERFQVLNPTWSAEAHGLAPDGDVFLSEEQVRSFQVPTCVQCGGHLKPDVVFFGDTVNPDKVDFVHKRVKEADSLLVVGSSLQVYSGYRFILTAWEKKLPIAILNIGPTRSDDLACLKLNSRCGELLPLIDPC
As for B2, the binding result in test [4] was “binds”.
